No constants are given. Whether binding was seen depends on the method and setting. In cells and extracts the contact can be indirect. Some binding calls cover weakened binding; strength is not graded here.

Sequences of proteins named here, by UniProt entry; tags and fusion partners are left off.
UniProt Q13838, whole entry: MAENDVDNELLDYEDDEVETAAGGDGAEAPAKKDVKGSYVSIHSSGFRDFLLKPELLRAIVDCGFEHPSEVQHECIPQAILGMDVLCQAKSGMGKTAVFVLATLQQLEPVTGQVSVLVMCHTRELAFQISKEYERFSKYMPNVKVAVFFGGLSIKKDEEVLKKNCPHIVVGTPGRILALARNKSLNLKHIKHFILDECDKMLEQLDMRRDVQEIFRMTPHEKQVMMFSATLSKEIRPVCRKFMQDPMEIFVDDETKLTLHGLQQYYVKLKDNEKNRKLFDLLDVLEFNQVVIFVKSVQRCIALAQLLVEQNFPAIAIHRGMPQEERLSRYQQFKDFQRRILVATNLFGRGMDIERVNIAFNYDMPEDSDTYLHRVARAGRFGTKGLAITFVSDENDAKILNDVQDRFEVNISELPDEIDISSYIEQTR

This experiment addresses T1, CHTOP (human (endogenous in K562)) (UniProt Q9Y3Y2).
T1 sequence: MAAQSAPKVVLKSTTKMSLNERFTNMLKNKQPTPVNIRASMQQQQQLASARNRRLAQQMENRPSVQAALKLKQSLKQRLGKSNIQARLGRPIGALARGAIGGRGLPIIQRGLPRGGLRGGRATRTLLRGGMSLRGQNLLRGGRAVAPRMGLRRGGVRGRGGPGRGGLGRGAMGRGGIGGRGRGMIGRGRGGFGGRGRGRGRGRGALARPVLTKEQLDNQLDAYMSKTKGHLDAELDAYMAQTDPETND
Kind of experiment: cross-linking.

Turning to “DEAD-box RNA helicase DDX39B (from UniProt Q13838 1-428)”, the binding entry is recorded as “binds”.

These data come from publication doi:10.1101/2025.02.25.640081.
